Measurements published in patent US8313736B2, “Chemically stable ingredients as lemon odorant” (Firmenich SA, priority 2008, dated 2012).
Entries after “also recorded” stand apart in the source; their conditions may differ.

Tests used:
[1] = Olfactive effect in lemon type perfuming composition for an all purpose cleaner; conditions: 250 parts by weight added to 2500 parts of all purpose cleaner composition
Description: A perfuming composition of the lemon type for an “all purpose cleaner” was prepared by admixing the following ingredients: […]

[2] = Olfactive effect in citrus, herbaceous perfuming composition for a shower gel; conditions: 100 parts by weight added to 3000 parts of shower gel composition
Description: A perfuming composition of the “citrus, herbaceous” type for a shower gel was prepared by admixing the following ingredients: […]

[3] = Odour evaluation of the compound and comparison with known ingredients

Row | Structure (SMILES) | Overall olfactive effect of the addition to the composition [1] | Overall olfactive effect of the addition to the composition [2] | Odour and comparison with known ingredients [3]
1 | CCC(C)=CCCC(C)=CC#N [lemonile, 3,7-dimethyl-2,6-nonadienenitrile, reference compound] | almost as lemony as the one obtained with 3,6,7-trimethyl-2,6-octadienenitrile, but more disharmonious, less natural and more chemical | too much fatty and citronella like | –
2 | CC(C)=C(C)CC/C(C)=C\C#N [(2Z)-3,6,7-Trimethyl-2,6-octadienenitrile] | – | – | Lemony note with a fatty and cumin aspect. The Z isomer possesses a weaker lemony character than the above E/Z mixture. Said compound is olfactively between geranyl nitrile and citral but, although being more citral, closer to geranyl nitrile.
3 | C/C(=C/C#N)CCC1(C)CC1(C)C (stereo not drawn) [3-methyl-5-(1,2,2-trimethylcyclopropyl)-2-pentenenitrile] | – | – | Citrus, lemony, fruity, nitrile, more natural and less fatty than geranyl nitrile. The citral character of this compound is stronger than the one of geranyl nitrile but is slightly inferior to the one of 3,6,7- trimethyl-2,6-octadienenitrile.
4 | CC(CC#N)CCC(C)C(C)C (stereo not drawn) [3,6,7-trimethyloctanenitrile] | – | – | Citrus/citral, nitrile, the citral note is stronger than the one of the prior art analogue 3,7- dimethyloctanenitrile. The odor of this invention's compound is close to the one of geranyl nitrile.
5 | CC(C)=CCCC(C)=CC#N [3,7-dimethyl-2,6-octadienenitrile, reference compound] | – | too much fatty and rosy like | –
6 | C/C(=C/C#N)CCC(C)C(C)C (stereo not drawn) [3,6,7-trimethyl-2-octenenitrile] | – | – | Citrus, lemony, green and nitrile, as overall the odor is less fatty/nitrile and more elegant than the one of its analogue 3,7-dimethyl-2- octenenitrile.
7 | CC(C)=CCCC(C)CC#N (stereo not drawn) [citronellyl nitrile, reference compound] | disappointing, flat, fatty, much less lemony | – | –
8 | CC(CC#N)CCC1(C)CC1(C)C (stereo not drawn) [3-methyl-5-(1,2,2-trimethylcyclopropyl)pentanenitrile] | – | – | Nice citrus note, slightly nitrile but well lemony, more citral than the above cyclopropane derivative. Nice and pleasant, more natural than geranyl nitrile.
9 | CC(C)=C(C)CCC(C)CC#N (stereo not drawn) [3,6,7-trimethyl-6-octenenitrile] | much more lemony, powerful, elegant and natural than the one obtained with citronellyl nitrile | – | Although structurally close to citronellyl nitrile, this compound is more powerful, elegant, lemony and zest than citronellyl nitrile.
10 | CC(=CC#N)CCC(C)=C(C)C [3,6,7-trimethyl-2,6-octadienenitrile] | a lemon character and a functional aspect; also recorded: as good as, and even more lemony than, the addition of the same amount of geranyl nitrile | a clear lemon/lime connotation | –
11 | CC(C)=C(C)C/C=C(\C)CC#N [(3E)-3,6,7-Trimethyl-3,6-octadienenitrile] | – | – | Lime, citronellol, geranyl nitrile but less aggressive/ chemical and less nitrile than the latter. Also some floral/rosy aspects.
12 | CC(C)=C(C)CC/C(C)=C/C#N [(2E)-3,6,7-Trimethyl-2,6-octadienenitrile] | – | – | Very nice and natural lemony note. The E isomer possesses a stronger lemony character than the above E/Z mixture.
